Source: PubChem BioAssay AID540256 (National Center for Advancing Translational Sciences (NCATS), 2011)
Screen size: about 300,000 compounds; about 3,700 (1.2%) were called active. The shares of active, inactive and inconclusive entries below differ from those in the screen. Calls come from the whole dose curve; tested in HEK293 cells. Potencies of inconclusive entries are doubtful fits and often do not repeat.

assay: qHTS for Inhibitors of binding or entry into cells for Lassa Virus; settings: Lassa virus pseudotype entry inhibition, cell reporter; activity change, negative = inhibition: at 37.9 µM (top of the series) unless noted; note: nearly all actives have a fitted effect of over 50% in size
% is set by controls: 0 for no effect and ±100 for the full control effect; potency is the fitted concentration of half-maximal effect.

Structure (SMILES)	activity change, negative = inhibition	Potency
Cc1ccc(OCC(=O)N2CCc3ccccc32)c([N+](=O)[O-])n1	inconclusive: 14.3% [activator]	–
O=c1[nH]c2cc3c(cc2cc1CN(CCc1ccccc1)Cc1nnnn1CC1CCCO1)OCO3 (configuration not stated)	–	inconclusive: 23.1 µM [inhibitor, partial curve]
c1ccc(N2CCN(c3ncnc4[nH]ncc34)CC2)cc1	–	inactive
CC1CCc2c(sc(NC(=O)c3ccco3)c2C(=O)O)C1 (configuration not stated)	–	inconclusive: 7.08 µM [inhibitor, partial curve, poor fit]
CC(=O)c1ccc(N/C=C\C(=O)c2ccc(C)cc2)cc1	–	inconclusive: 1.58 µM [inhibitor, full curve, poor fit]
COc1ccc(CCN=C(N)NS(=O)(=O)c2ccc(F)cc2)cc1OC	–	inactive
Cc1cccc(CC(C)NC(=O)CCc2nnc(CCCCc3ccccc3)o2)n1 (configuration not stated)	–	inconclusive: 35.5 µM [inhibitor, single point]
Cc1ccc(N2C(=O)c3n[nH]c(C)c3C2c2ccc(C(C)C)cc2)cc1 (configuration not stated)	–	inconclusive: 15.8 µM [inhibitor, single point]
c1ccc(N2CCN(C3CCSC3)CC2)cc1 (configuration not stated)	–	inactive
COc1ccc(-n2ncc3c(N4CCCc5ccccc54)ncnc32)cc1	–	inconclusive: 12.6 µM [inhibitor, single point]
CC12CCC3C(CC=C4CC(O)CCC43C)C1C/C(=C\c1ccccc1F)C2=O (configuration not stated)	–	inconclusive: 35.5 µM [inhibitor, single point]
COc1ccc(-c2csc(NC(=O)CCCc3cccs3)n2)cc1	–	inactive
Cc1ccc(-c2nnc(Nc3ccc(Br)cc3)c3ccccc23)cc1S(=O)(=O)NCc1nc2ccccc2[nH]1	–	inconclusive: 12.6 µM [inhibitor, partial curve, poor fit]
OC1(Cc2ccccc2)CCNCC1	–	inactive
O=c1n(-c2ccc(Br)cc2)cnn1-c1ncccc1[N+](=O)[O-]	–	inconclusive: 12.6 µM [inhibitor, partial curve, poor fit]
O=C(Nc1sc2c(c1C(=O)O)CCC2)c1ccccc1	–	inconclusive: 20.6 µM [inhibitor, single point]
COc1cccc(N(CC(=O)NCCSCc2ccco2)S(=O)(=O)c2ccccc2)c1	–	inconclusive: 10 µM [inhibitor, partial curve, poor fit]
CCCNc1c(NS(=O)(=O)c2ccc3c(c2)CCCC3)c(=O)oc2ccccc12	–	inconclusive: 3.55 µM [inhibitor, partial curve, poor fit]
CC1CN(S(=O)(=O)c2cc(C(=O)NC(C)c3cccnc3)ccc2Cl)CC(C)O1 (configuration not stated)	–	inactive
C=CCN=C1NN=C(c2ccc3c(c2)OCCO3)CS1	–	active: 0.461 µM
NC(N)=NCc1cccc(I)c1	–	inconclusive: 3.26 µM [inhibitor, partial curve, poor fit]
COC(=O)C1=C(C)N(c2ccc(OC)cc2)C(C)=C(C(=O)OC)C1c1ccc(OC)cc1	–	inconclusive: 6.31 µM [inhibitor, partial curve]
CCCOc1ccccc1OCC(=O)Nc1cccc(S(=O)(=O)NC2=NCCC2)c1	–	inconclusive: 12.6 µM [inhibitor, single point]

Sorted by heavy-atom count (rising): some entries from above
Structure (SMILES)	activity change, negative = inhibition	Potency
NC(N)=NCc1cccc(I)c1	–	inconclusive: 3.26 µM [inhibitor, partial curve, poor fit]
OC1(Cc2ccccc2)CCNCC1	–	inactive
c1ccc(N2CCN(C3CCSC3)CC2)cc1 (configuration not stated)	–	inactive
C=CCN=C1NN=C(c2ccc3c(c2)OCCO3)CS1	–	active: 0.461 µM
CC1CCc2c(sc(NC(=O)c3ccco3)c2C(=O)O)C1 (configuration not stated)	–	inconclusive: 7.08 µM [inhibitor, partial curve, poor fit]
O=c1n(-c2ccc(Br)cc2)cnn1-c1ncccc1[N+](=O)[O-]	–	inconclusive: 12.6 µM [inhibitor, partial curve, poor fit]
Cc1ccc(OCC(=O)N2CCc3ccccc32)c([N+](=O)[O-])n1	inconclusive: 14.3% [activator]	–
COc1ccc(-c2csc(NC(=O)CCCc3cccs3)n2)cc1	–	inactive
COc1ccc(CCN=C(N)NS(=O)(=O)c2ccc(F)cc2)cc1OC	–	inactive
COc1ccc(-n2ncc3c(N4CCCc5ccccc54)ncnc32)cc1	–	inconclusive: 12.6 µM [inhibitor, single point]
CC12CCC3C(CC=C4CC(O)CCC43C)C1C/C(=C\c1ccccc1F)C2=O (configuration not stated)	–	inconclusive: 35.5 µM [inhibitor, single point]
CCCOc1ccccc1OCC(=O)Nc1cccc(S(=O)(=O)NC2=NCCC2)c1	–	inconclusive: 12.6 µM [inhibitor, single point]
COc1cccc(N(CC(=O)NCCSCc2ccco2)S(=O)(=O)c2ccccc2)c1	–	inconclusive: 10 µM [inhibitor, partial curve, poor fit]
COC(=O)C1=C(C)N(c2ccc(OC)cc2)C(C)=C(C(=O)OC)C1c1ccc(OC)cc1	–	inconclusive: 6.31 µM [inhibitor, partial curve]
O=c1[nH]c2cc3c(cc2cc1CN(CCc1ccccc1)Cc1nnnn1CC1CCCO1)OCO3 (configuration not stated)	–	inconclusive: 23.1 µM [inhibitor, partial curve]
Cc1ccc(-c2nnc(Nc3ccc(Br)cc3)c3ccccc23)cc1S(=O)(=O)NCc1nc2ccccc2[nH]1	–	inconclusive: 12.6 µM [inhibitor, partial curve, poor fit]

3 entries from above, ordered by formula weight, high to low:
Structure (SMILES)	activity change, negative = inhibition	Potency
COC(=O)C1=C(C)N(c2ccc(OC)cc2)C(C)=C(C(=O)OC)C1c1ccc(OC)cc1	–	inconclusive: 6.31 µM [inhibitor, partial curve]
CC(=O)c1ccc(N/C=C\C(=O)c2ccc(C)cc2)cc1	–	inconclusive: 1.58 µM [inhibitor, full curve, poor fit]
NC(N)=NCc1cccc(I)c1	–	inconclusive: 3.26 µM [inhibitor, partial curve, poor fit]

Following part

Structure (SMILES)	activity change, negative = inhibition	Potency
COc1ccccc1NS(=O)(=O)c1ccc(NC(=O)c2nc3nc(C)cc(C(F)F)n3n2)cc1	–	inactive
CCOC(=O)N1CCN(S(=O)(=O)Cc2ccccc2)CC1	–	inactive
Cn1c(Cl)nc2c1c(=O)n(Cc1cccc(Br)c1)c(=O)n2C	–	inactive
Cc1cccn2c(=O)c(C(=O)NCCc3ccc(Cl)cc3)cnc12	–	inconclusive: 31.6 µM [activator, single point]
COc1cccc(COC(=O)C2CC(=O)N(Cc3ccco3)C2)c1OC (configuration not stated)	–	inconclusive: 5.01 µM [inhibitor, full curve, poor fit]
COCCN1C(=O)c2[nH]nc(-c3c(C)cc(C)cc3O)c2C1c1cccc(O)c1 (configuration not stated)	–	inconclusive: 7.94 µM [inhibitor, partial curve, poor fit]
NN=C(N)N	–	inconclusive: 0.259 µM [activator, full curve]
COc1ccc(C(=O)NC(=S)N(Cc2ccccc2)Cc2ccccc2)cc1	–	inconclusive: 25.9 µM [inhibitor, single point]
O=C(Nc1ccncc1)Nc1ccc(Cl)cc1Cl	–	inconclusive: 35.5 µM [inhibitor, single point]
CCOc1ccc(NC(=O)C2CCCN(c3nnc(-n4c(C)ccc4C)s3)C2)cc1 (configuration not stated)	–	inconclusive: 1.58 µM [activator, partial curve, poor fit]
Cc1ccc(Cl)cc1NC(=O)c1cccc(NC(=O)N2CCSc3ncccc32)c1	–	inactive
COc1ccc2cc([C@H](C)C(=O)N(C)Cc3ccccc3N3CCCC3)ccc2c1	–	inconclusive: 35.5 µM [inhibitor, partial curve, poor fit]
COc1cccc(CN(Cc2ccco2)C(c2ccc(F)cc2)c2nnnn2C(C)(C)C)c1 (configuration not stated)	–	inconclusive: 10 µM [inhibitor, partial curve, poor fit]
COC(=O)C1CCN(C2CC(=O)N(c3cc(C)cc(C)c3)C2=O)CC1 (configuration not stated)	–	inactive
COc1ccc(N(CC(=O)NCc2ccc(C)cc2)S(=O)(=O)c2ccccc2[N+](=O)[O-])c(OC)c1	–	inconclusive: 0.58 µM [inhibitor, full curve]
COc1ccc(-n2c(=O)c3sc4ccccc4c3n(CC(=O)N3CCCC3)c2=O)cc1	–	inactive
Cc1[nH]c2ccccc2c1C(=O)CSC(=S)N1CCCCC1	–	inconclusive: 4.11 µM [activator, single point]
O=C(Nc1ccc(NC(=O)C2CC2)nc1)c1ccco1	–	inconclusive: 16.4 µM [activator, single point]
Cc1ccc(Cn2c(SCc3ccc(C(=O)NCCc4ccccc4)cc3)nc3ccncc32)cc1	–	inconclusive: 7.08 µM [inhibitor, partial curve, poor fit]
CC(Oc1ccc(Cl)cc1Cl)c1nc(-c2ccc(NC(=O)c3ccccn3)cc2)no1 (configuration not stated)	–	inconclusive: 29.1 µM [inhibitor, single point]
Cc1ccc(CS(=O)Cc2ccc(C(=O)NCc3ccc(OC(C)C)cc3)o2)cc1 (configuration not stated)	–	inconclusive: 6.31 µM [activator, single point]
O=C(CSCc1cccc(Cl)c1)N/N=C/c1ccc(OCC(=O)N2CCCCC2)cc1	–	inconclusive: 29.1 µM [inhibitor, single point]
CCOC(=O)CN1C(=O)CC(c2ccccc2)C1=O (configuration not stated)	–	inactive

Structure (SMILES)	activity change, negative = inhibition	Potency
CCOc1ccc(NC(=O)CCS(=O)(=O)c2ccc3nc(C)sc3c2)cc1	–	inactive
Cc1ccc(C)n1-c1ccc(NC(=O)c2ccccc2)cc1	–	inconclusive: 12.6 µM [inhibitor, partial curve, poor fit]
Cc1cccc(C)c1NC(=O)C(NC=O)c1ccccc1 (configuration not stated)	–	inactive
NC(=O)c1ccccc1NC(=O)CN1CCCCCC1	–	inconclusive: 10 µM [activator, partial curve]
O=C(CCc1nnc2n(Cc3ccc(Cl)cc3)c(=O)c3ccccc3n12)NCCN1CCCC1	–	inconclusive: 35.5 µM [inhibitor, single point]
Cc1ccc(/C=C2/C(=O)N(c3ccccc3)C(=S)N2C)o1	–	inactive
CC1CCCN(C(=O)C(C)Sc2nc(-c3ccccc3)cc(C(F)(F)F)n2)C1 (configuration not stated)	–	inactive
O=C(NCC1CCCO1)c1ccc(-c2ccccc2Cl)o1 (configuration not stated)	–	inconclusive: 35.5 µM [inhibitor, single point]
COCCNCCOc1ccc(C(C)(C)c2ccccc2)cc1	–	inconclusive: 23.1 µM [inhibitor, partial curve, poor fit]
COc1ccc(C/C(C)=N/NC(=S)Nc2ccc(C(C)C)cc2)cc1	–	inconclusive: 8.2 µM [inhibitor, partial curve]
OCCN1CCN(CC#CCn2c3ccccc3c3ccccc32)CC1	–	inconclusive: 12.6 µM [inhibitor, single point]
COc1cccc(N2CCN(C(=O)CN3C(=O)NC(C)(c4ccc5ccccc5c4)C3=O)CC2)c1 (configuration not stated)	–	inconclusive: 35.5 µM [inhibitor, partial curve, poor fit]
CCc1ccc(NC(=O)CSC2=Nc3ccccc3C3=NC(CC(=O)NCc4ccc5c(c4)OCO5)C(=O)N23)cc1 (configuration not stated)	–	inactive
Cc1cc(Cl)ccc1OC(C)C(=O)Nc1ccc([N+](=O)[O-])cn1 (configuration not stated)	–	inactive
CN(C)c1ccc(NC(=O)Cn2c(SCc3ccc(F)cc3)nc3cccnc32)cc1	–	inconclusive: 6.31 µM [activator, single point]
CN(C)c1ccc(CNc2nc(-c3ccco3)nn2S(C)(=O)=O)cc1	–	inconclusive: 3.55 µM [activator, single point]
COc1ccc(NC2CCCN(C(=O)CCOc3ccccc3)C2)cc1 (configuration not stated)	–	inconclusive: 8.91 µM [activator, partial curve, poor fit]
CCOc1cccc(NC(=O)C2CC(=O)NC(=Nc3ccccc3)S2)c1 (configuration not stated)	–	inconclusive: 35.5 µM [inhibitor, single point]
O=C(COc1ccccc1)N1CCN(C2CC3CCC2C3)CC1 (configuration not stated)	–	inconclusive: 15.8 µM [activator, single point]
CC(=O)CCS(=O)(=O)c1ccc(Oc2ccc(S(=O)(=O)CCC(C)=O)cc2)cc1	–	inactive
O=C(c1cccc(C(=O)N2CCN(c3ccc(F)cc3)CC2)c1)N1CCN(c2ccc(F)cc2)CC1	–	inconclusive: 14.6 µM [inhibitor, partial curve, poor fit]
